Experiment [1] concerns the target PIEZO1 (human (endogenous in HUVECs)) (UniProt Q92508). Kind of experiment: co-IP; cell lysates from HUVECs used for IP and IB; endogenous proteins.
Experiment [2] addresses KINDLIN-2 (human (endogenous in HUVECs)) (UniProt Q96AC1). The experiment is described as above.
Experiment [3] concerns the target Piezo1 (in the Co-IP with Kindlin-2 truncations) (UniProt Q92508). Kind of experiment: co-IP; plasmids expressing different truncations of Kindlin-2; Co-IP (Fig. S8M); cells not given.
Experiment [4] concerns the target Trim28 (in the Co-IP with Kindlin-2 truncations) (UniProt Q13263). Described as above.
Experiment [5] addresses KINDLIN-2 (human (endogenous in HUVECs)) (UniProt Q96AC1). In words: co-IP; Co-IP of KINDLIN-2 and PIEZO1 (Fig. S8F, S8G); cells, bait and conditions not stated in the text shown.

Sequences of proteins named here, by UniProt entry; tags and fusion partners are left off. A change or cut given only in a name is not applied to a line headed by its entry.
UniProt Q92508: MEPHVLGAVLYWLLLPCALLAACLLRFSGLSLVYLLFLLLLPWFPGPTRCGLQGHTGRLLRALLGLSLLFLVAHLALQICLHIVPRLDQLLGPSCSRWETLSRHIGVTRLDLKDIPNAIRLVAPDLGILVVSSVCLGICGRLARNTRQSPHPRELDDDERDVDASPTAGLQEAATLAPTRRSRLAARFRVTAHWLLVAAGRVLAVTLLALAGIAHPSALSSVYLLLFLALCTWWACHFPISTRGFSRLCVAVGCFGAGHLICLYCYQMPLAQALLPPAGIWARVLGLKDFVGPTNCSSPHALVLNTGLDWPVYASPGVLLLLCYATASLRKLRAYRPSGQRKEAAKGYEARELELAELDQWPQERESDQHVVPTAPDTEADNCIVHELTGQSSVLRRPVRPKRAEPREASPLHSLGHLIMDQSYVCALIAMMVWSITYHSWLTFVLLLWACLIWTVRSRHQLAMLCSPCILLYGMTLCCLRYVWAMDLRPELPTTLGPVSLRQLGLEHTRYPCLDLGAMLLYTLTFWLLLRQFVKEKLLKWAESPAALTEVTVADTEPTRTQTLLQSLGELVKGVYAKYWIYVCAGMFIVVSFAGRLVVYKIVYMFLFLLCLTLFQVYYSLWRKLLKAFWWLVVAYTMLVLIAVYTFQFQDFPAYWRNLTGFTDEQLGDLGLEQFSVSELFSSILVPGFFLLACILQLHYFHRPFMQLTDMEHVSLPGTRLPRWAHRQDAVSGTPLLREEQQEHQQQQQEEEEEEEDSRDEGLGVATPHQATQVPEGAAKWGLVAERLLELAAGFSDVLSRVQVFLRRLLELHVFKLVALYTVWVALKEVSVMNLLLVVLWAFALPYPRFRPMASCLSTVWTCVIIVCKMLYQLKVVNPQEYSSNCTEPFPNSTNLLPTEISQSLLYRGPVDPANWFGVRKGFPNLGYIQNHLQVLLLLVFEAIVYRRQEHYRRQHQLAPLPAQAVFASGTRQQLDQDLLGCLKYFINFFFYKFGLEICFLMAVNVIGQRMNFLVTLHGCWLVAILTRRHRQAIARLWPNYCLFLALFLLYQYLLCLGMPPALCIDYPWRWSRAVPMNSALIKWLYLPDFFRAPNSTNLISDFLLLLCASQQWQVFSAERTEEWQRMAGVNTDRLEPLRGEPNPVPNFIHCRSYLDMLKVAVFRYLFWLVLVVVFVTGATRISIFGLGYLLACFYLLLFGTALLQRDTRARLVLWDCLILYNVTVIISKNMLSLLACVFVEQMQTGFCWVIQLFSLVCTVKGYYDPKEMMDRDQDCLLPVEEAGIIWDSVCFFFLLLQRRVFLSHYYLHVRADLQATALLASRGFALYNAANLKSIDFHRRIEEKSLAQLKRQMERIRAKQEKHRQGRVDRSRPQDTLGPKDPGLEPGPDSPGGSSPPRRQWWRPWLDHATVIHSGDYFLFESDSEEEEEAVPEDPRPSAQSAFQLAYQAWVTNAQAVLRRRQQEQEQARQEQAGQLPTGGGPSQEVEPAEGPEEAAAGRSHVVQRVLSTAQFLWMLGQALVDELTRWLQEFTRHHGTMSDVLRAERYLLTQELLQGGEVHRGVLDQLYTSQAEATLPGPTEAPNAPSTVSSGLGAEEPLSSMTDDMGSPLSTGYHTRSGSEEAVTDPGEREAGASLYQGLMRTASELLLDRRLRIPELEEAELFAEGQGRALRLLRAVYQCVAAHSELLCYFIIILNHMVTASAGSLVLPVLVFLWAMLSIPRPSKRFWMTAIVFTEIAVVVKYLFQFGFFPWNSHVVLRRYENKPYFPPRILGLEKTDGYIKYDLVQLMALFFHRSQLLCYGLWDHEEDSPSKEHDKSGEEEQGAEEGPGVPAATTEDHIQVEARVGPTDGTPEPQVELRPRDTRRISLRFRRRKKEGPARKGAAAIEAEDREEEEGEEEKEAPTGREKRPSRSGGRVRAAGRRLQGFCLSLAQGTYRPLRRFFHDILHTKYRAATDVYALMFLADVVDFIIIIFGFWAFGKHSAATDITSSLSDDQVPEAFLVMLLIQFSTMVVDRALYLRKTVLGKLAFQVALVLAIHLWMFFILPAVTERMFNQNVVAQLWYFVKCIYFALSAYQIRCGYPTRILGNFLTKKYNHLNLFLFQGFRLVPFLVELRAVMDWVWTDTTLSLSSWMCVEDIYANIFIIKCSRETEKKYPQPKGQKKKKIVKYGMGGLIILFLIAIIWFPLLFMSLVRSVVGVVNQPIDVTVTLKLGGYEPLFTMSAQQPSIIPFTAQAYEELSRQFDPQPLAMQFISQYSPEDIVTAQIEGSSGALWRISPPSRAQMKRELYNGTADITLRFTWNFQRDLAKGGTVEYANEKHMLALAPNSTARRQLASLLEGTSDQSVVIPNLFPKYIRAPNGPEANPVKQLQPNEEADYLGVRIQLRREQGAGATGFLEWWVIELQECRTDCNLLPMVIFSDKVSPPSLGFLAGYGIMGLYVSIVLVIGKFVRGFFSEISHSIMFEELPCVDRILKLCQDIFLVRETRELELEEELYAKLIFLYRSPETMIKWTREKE
UniProt Q96AC1: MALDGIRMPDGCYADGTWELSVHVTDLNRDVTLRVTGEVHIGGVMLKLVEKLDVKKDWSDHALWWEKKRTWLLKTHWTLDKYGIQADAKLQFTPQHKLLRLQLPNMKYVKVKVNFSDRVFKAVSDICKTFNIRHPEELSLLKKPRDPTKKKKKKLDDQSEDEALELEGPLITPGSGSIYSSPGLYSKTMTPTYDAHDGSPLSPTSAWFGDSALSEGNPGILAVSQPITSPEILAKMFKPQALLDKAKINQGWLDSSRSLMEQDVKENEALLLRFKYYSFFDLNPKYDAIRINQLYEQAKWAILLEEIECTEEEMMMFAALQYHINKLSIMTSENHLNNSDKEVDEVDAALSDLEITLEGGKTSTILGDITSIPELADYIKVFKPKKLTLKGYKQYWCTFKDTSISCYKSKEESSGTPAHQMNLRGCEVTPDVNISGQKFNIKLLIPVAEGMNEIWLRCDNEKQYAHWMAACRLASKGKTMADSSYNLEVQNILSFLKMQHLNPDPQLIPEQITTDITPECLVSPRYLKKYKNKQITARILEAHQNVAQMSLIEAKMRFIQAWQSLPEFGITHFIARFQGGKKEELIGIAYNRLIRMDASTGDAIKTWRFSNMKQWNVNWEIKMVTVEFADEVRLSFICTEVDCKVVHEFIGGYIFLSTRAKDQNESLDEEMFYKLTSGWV
UniProt Q13263: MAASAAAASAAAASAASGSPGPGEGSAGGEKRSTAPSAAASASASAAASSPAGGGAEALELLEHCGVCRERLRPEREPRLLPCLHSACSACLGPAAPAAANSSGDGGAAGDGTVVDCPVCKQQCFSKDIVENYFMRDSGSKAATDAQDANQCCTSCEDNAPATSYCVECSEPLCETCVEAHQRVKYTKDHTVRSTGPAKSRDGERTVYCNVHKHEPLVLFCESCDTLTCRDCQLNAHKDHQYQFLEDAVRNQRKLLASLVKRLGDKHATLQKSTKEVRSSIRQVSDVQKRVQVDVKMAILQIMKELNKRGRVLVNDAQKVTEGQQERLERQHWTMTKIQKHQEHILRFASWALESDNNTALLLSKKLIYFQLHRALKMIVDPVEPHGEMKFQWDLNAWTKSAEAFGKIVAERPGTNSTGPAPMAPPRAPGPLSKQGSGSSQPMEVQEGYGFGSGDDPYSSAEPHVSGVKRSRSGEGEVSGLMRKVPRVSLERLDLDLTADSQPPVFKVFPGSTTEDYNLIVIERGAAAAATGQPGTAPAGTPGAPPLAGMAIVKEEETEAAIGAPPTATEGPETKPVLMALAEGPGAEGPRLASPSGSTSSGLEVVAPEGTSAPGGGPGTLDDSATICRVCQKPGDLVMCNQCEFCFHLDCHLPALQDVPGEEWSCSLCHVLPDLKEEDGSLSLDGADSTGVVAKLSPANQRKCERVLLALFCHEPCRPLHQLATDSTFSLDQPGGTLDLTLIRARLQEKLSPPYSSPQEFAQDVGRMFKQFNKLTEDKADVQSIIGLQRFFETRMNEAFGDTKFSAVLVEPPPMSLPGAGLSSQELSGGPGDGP

No constants are given. Whether binding was seen depends on the method and setting. Binding seen in cells or lysates may run through a third protein. Some results given as binding are weak or reduced against the parent protein; the word gives no strength.

For the substance TRIM28 (from UniProt Q13263 1-835), the binding entry in experiment [1] and in experiment [2] was “binds” each time.
Consider “Kindlin-2 aa1-569 (from UniProt Q96AC1 1-569) (domain or fragment)”, for which the binding result in experiment [3] was “binds”.
Turning to “Kindlin-2 aa1-239 (from UniProt Q96AC1 1-239) (domain or fragment)”, in experiment [4], the binding entry is given as “binds”.
As for PIEZO1 (from UniProt Q92508 1-2521), the binding entry in experiment [5] is on record as “binds”.
